Measurements taken from PubChem BioAssay AID248 (DTP/NCI, 2004).
The list is a part of this screen's results and no random one: it is rich in T/C values a quarter to a half above the control, in often repeated tests (any T/C) and in doses without a T/C. Further doses and runs are listed elsewhere. T/C: endpoint of the treated group in % of that of the vehicle group. Some entries give survivors of the animals treated and no T/C: the source files T/C as zero there, which appears to mark a toxic dose or a test without result, not a measured value. Counts of survivors are from the toxicity check (mostly the fifth day) where no day follows; animals may have died later. Schedule codes are those of the source, taken here to give the interval after Q, in days (D) or hours (H), and the number of doses after X. Some entries were tested several times; the results are listed from low to high. Some schedules carry Z or #; the key to these is not given. Where survival is the endpoint, this PubChem deposit counts one and a half times the control or more as active, and values a quarter to a half above the control carry no call in these data; other NCI protocols may use other cut-offs. Some T/C values are followed by the survivors on the day toxicity was checked, most often the fifth; without a count, all were alive then.

System: L1210 leukemia ip in BDF1 mice, survival T/C
Test: NCI In Vivo Anticancer Drug Screen. Data for tumor model L1210 Leukemia (intraperitoneal) in B6D2F1 (BDF1) mice
Settings: T/C endpoint: mean survival time, higher T/C = longer survival
[1] = dose: 2.5 mg/kg/injection, schedule: Q01DX Z (im), vehicle: saline
[2] = dose: 5.0 mg/kg/injection, schedule: Q01DX Z (im), vehicle: saline

What does the source list for N#[N+]c1cnc([O-])[nH]c1=O?
T/C (dose: 1.0 mg/kg/injection, schedule: Q01DX009 (ip), vehicle: carboxymethylcellulose (CMC)): 126 % of control; T/C (dose: 1.0 mg/kg/injection, schedule: Q01DX009 (ip), vehicle: saline): 126 % of control; survivor count (dose: 1.2 mg/kg/injection, schedule: Q01DX Z (im), vehicle: saline): 2 of 6; T/C (dose: 1.25 mg/kg/injection, schedule: Q#A X Z (ip), vehicle: methylcellulose (MC)): 133 % of control; T/C (dose: 1.89 mg/kg/injection, schedule: Q03DX Z (ip), vehicle: methylcellulose (MC)): 126 % of control; T/C (dose: 2.0 mg/kg/injection, schedule: Q01DX009 (ip), vehicle: carboxymethylcellulose (CMC)): 132 % of control; T/C (dose: 2.0 mg/kg/injection, schedule: Q01DX009 (ip), vehicle: saline): 127 and 136 % of control; T/C (dose: 2.5 mg/kg/injection, schedule: Q01DX005 (ip), vehicle: Klucel (hydroxypropylcellulose) (HPC)): 141 % of control; T/C (dose: 2.5 mg/kg/injection, schedule: Q01DX005 (ip), vehicle: alkali diluted with saline): 131 % of control; T/C (dose: 2.5 mg/kg/injection, schedule: Q01DX005 (ip), vehicle: saline): 138 % of control; T/C (dose: 2.5 mg/kg/injection, schedule: Q01DX009 (ip), vehicle: saline): 116, 118, 125, 144 % of control; T/C (dose: 2.5 mg/kg/injection, schedule: Q01DX010 (ip), vehicle: saline): 131 % of control; T/C [1]: 127 % of control; survivor count [1]: 1 of 6; T/C (dose: 2.5 mg/kg/injection, schedule: Q01DX Z (ip), vehicle: carboxymethylcellulose (CMC)): 130 % of control; T/C (dose: 2.5 mg/kg/injection, schedule: Q#A X Z (ip), vehicle: methylcellulose (MC)): 133 % of control; T/C (dose: 4.0 mg/kg/injection, schedule: Q01DX001 (ip), vehicle: carboxymethylcellulose (CMC)): 129 % of control; T/C (dose: 4.0 mg/kg/injection, schedule: Q01DX009 (ip), vehicle: carboxymethylcellulose (CMC)): 134 % of control; T/C (dose: 4.0 mg/kg/injection, schedule: Q01DX009 (ip), vehicle: saline): 127 [5 of 6 alive] and 131 % of control; T/C (dose: 4.0 mg/kg/injection, schedule: Q## X002 (ip), vehicle: carboxymethylcellulose (CMC)): 126 % of control; T/C (dose: 4.0 mg/kg/injection, schedule: Q## X003 (ip), vehicle: carboxymethylcellulose (CMC)): 132 % of control; T/C (dose: 4.4 mg/kg/injection, schedule: Q07DX Z (ip), vehicle: methylcellulose (MC)): 128 % of control; T/C (dose: 5.0 mg/kg/injection, schedule: Q01DX005 (ip), vehicle: Klucel (hydroxypropylcellulose) (HPC)): 144 % of control; T/C (dose: 5.0 mg/kg/injection, schedule: Q01DX005 (ip), vehicle: alkali diluted with saline): 143 % of control; T/C (dose: 5.0 mg/kg/injection, schedule: Q01DX005 (ip), vehicle: saline): 147 % of control; T/C (dose: 5.0 mg/kg/injection, schedule: Q01DX009 (ip), vehicle: saline): 117, 120, 129, 134 % of control [5 of 6 alive]; T/C (dose: 5.0 mg/kg/injection, schedule: Q01DX010 (ip), vehicle: saline): 129 and 139 % of control; T/C (dose: 5.0 mg/kg/injection, schedule: Q01DX015 (ip), vehicle: alkali diluted with saline): 141 % of control; T/C [2]: 140 % of control; survivor count [2]: 0 of 6; T/C (dose: 5.0 mg/kg/injection, schedule: Q01DX Z (ip), vehicle: carboxymethylcellulose (CMC)): 139 % of control; T/C (dose: 5.0 mg/kg/injection, schedule: Q01DX Z (sc), vehicle: steroid suspending solution): 127 % of control; T/C (dose: 5.0 mg/kg/injection, schedule: Q04DX003 (ip), vehicle: alkali diluted with saline): 125 % of control; T/C (dose: 5.0 mg/kg/injection, schedule: Q04DX003 (ip), vehicle: saline): 125 % of control; T/C (dose: 5.0 mg/kg/injection, schedule: Q#A X Z (ip), vehicle: methylcellulose (MC)): 149 % of control; T/C (dose: 7.5 mg/kg/injection, schedule: Q03DX Z (ip), vehicle: methylcellulose (MC)): 133 % of control; T/C (dose: 7.7 mg/kg/injection, schedule: Q01DX015 (ip), vehicle: alkali diluted with saline): 142 % of control; T/C (dose: 8.0 mg/kg/injection, schedule: Q01DX001 (ip), vehicle: carboxymethylcellulose (CMC)): 135 % of control; T/C (dose: 8.0 mg/kg/injection, schedule: Q01DX009 (ip), vehicle: saline): 143 % of control; T/C (dose: 8.0 mg/kg/injection, schedule: Q## X002 (ip), vehicle: carboxymethylcellulose (CMC)): 134 % of control; T/C (dose: 8.0 mg/kg/injection, schedule: Q## X003 (ip), vehicle: carboxymethylcellulose (CMC)): 135 % of control; T/C (dose: 8.0 mg/kg/injection, schedule: Q## X008 (ip), vehicle: carboxymethylcellulose (CMC)): 134 % of control; T/C (dose: 10.0 mg/kg/injection, schedule: Q01DX005 (ip), vehicle: alkali diluted with saline): 149 % of control; T/C (dose: 10.0 mg/kg/injection, schedule: Q01DX005 (ip), vehicle: saline): 140 % of control; T/C (dose: 10.0 mg/kg/injection, schedule: Q01DX009 (ip), vehicle: saline): 131, 148, 171 [4 of 6 alive], 173 % of control; T/C (dose: 10.0 mg/kg/injection, schedule: Q01DX010 (ip), vehicle: saline): 147 % of control; T/C (dose: 10.0 mg/kg/injection, schedule: Q01DX Z (ip), vehicle: carboxymethylcellulose (CMC)): 145 % of control; survivor count (dose: 10.0 mg/kg/injection, schedule: Q01DX Z (ip), vehicle: saline): 2 of 6; T/C (dose: 10.0 mg/kg/injection, schedule: Q01DX Z (sc), vehicle: steroid suspending solution): 133 % of control; T/C (dose: 10.0 mg/kg/injection, schedule: Q04DX003 (ip), vehicle: alkali diluted with saline): 131 % of control; T/C (dose: 10.0 mg/kg/injection, schedule: Q04DX003 (ip), vehicle: saline): 131 [5 of 6 alive] and 139 % of control; T/C (dose: 10.0 mg/kg/injection, schedule: Q#A X Z (ip), vehicle: methylcellulose (MC)): 147 % of control; T/C (dose: 11.5 mg/kg/injection, schedule: Q01DX015 (ip), vehicle: alkali diluted with saline): 143 % of control; T/C (dose: 12.0 mg/kg/injection, schedule: Q01DX001 (ip), vehicle: alkali diluted with saline): 141 % of control; T/C (dose: 15.0 mg/kg/injection, schedule: Q01DX001 (ip), vehicle: alkali diluted with saline): 131 % of control; T/C (dose: 15.0 mg/kg/injection, schedule: Q01DX001 (ip), vehicle: saline): 127 % of control [5 of 6 alive]; T/C (dose: 16.0 mg/kg/injection, schedule: Q01DX001 (ip), vehicle: carboxymethylcellulose (CMC)): 142 % of control; T/C (dose: 16.0 mg/kg/injection, schedule: Q01DX009 (ip), vehicle: carboxymethylcellulose (CMC)): 135 % of control [9 of 10 alive]; survivor count (dose: 16.0 mg/kg/injection, schedule: Q01DX009 (ip), vehicle: saline): 1 of 6 and 3 of 6
